Measured values published in PubChem BioAssay AID2685 (National Center for Advancing Translational Sciences (NCATS), 2010).
The other results are listed elsewhere or left out. Shown are side measurements of this screen, not its main read-out; they come without a call. Most of these compounds were active or inconclusive in the main read-out, so they are no random draw. Potencies come from curve fits of mixed quality, noted in brackets.

Experiment: qHTS Assay for Lipid Storage Modulators in Drosophila S3 Cells;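 on cell number change: cells counted by Cell Tracker Red CMTPX staining in the red channel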
Details: BODIPY lipid droplet fluorescence, 18-24 h; for cell number change: measured here: cell count max response, cells fed with added oleic acid
Procedure, shortened: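 Drosophila S3 cells loaded with oleic acid (400 uM, as added) and compounds at several concentrations; lipid droplets imaged by 488-nm laser-scanning cytometry, 500–530 nm intensity and object ratio to cell channel. Percent activity normalized to 20 uM Triacsin C.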

[1] = measured here: cell number channel AC50, cells fed with added oleic acid
[2] = measured here: lipid fluorescence (Fed channel) AC50, cells fed with added oleic acid

Structure (SMILES)	cell number change [%]	AC50 [1]	AC50 [2]
Cc1ccc2nc(-c3ccccc3)cc(C(=O)NCC3CCCO3)c2c1 (stereo not drawn)	28.8	0.326 µM [rising, full curve, poor fit]	0.461 µM [rising, full curve, poor fit]
CCn1c(SCC(=O)NCc2ccccc2)nnc1C(CO)NC(=O)c1ccccc1 (stereo not drawn)	18.5		29.1 µM [rising, single point]
O=C(CC1(O)C(=O)Nc2ccccc21)c1ccc(-n2cccc2)cc1 (stereo not drawn)	-6.88		
CCOC1CCc2c(C)nc(N)nc2S1 (stereo not drawn)	-15.3	0.00461 µM [falling, full curve, poor fit]	32.6 µM [rising, single point]
COc1ccc(N2CCN(Cc3cc(=O)oc4ccc(C)cc34)CC2)cc1	-3.26		2.31 µM [rising, full curve, poor fit]
CCCc1cc(=O)[nH]c(SCC(=O)NC(=O)c2ccccc2)n1	0.349		0.00461 µM [falling, full curve, poor fit]
COc1ccccc1NC(=O)CSc1nnc(CNC(=O)c2ccco2)n1C	-10.5		0.112 µM [rising, full curve, poor fit]
CCCC(C)C(=O)Nc1ccc(NC(C)=O)cc1 (stereo not drawn)	-105	16.4 µM [falling, partial curve]	25.9 µM [falling, partial curve]
COc1ccccc1C(=O)NCCCNC(=O)c1cnccn1	20.3		29.1 µM [rising, single point]
NC(=O)c1cc2cc(Br)ccc2o/c1=N/NC(=O)c1cccc(F)c1	2.01		2.06 µM [rising, partial curve, poor fit]
O=C(NCc1ccc(Cl)cc1Cl)C1CC(=O)N(Cc2ccccc2)C1 (stereo not drawn)	-17.1		
O=C(CNC(c1ccccc1)c1ccccc1)Nc1c(F)cccc1F	10.8		
O=C(NCCc1c[nH]c2ccccc12)C(=O)Nc1cc2c3c(c1)CC(=O)N3CCC2			0.231 µM [rising, full curve, poor fit]
COC(=O)c1ccc(CNC(=O)c2ccc3oc(C(C)C)nc3c2)cc1	22		6.51 µM [rising, single point]
CSc1ccc(CNc2ccc(Cl)cc2)cc1	24.4		
COc1ccc(-c2cn(-c3ccc(C)cc3)c(=O)n2CC(=O)Nc2cccc(F)c2)cc1	127	23.1 µM [rising, partial curve]	6.51 µM [falling, single point]
O=C(NCCN1CCCc2ccccc21)C1CCC(=O)N(CCc2ccccc2)C1 (stereo not drawn)	-5.57		
Cc1cc(C)n(C(CC(=O)O)C(=O)O)n1 (stereo not drawn)	7.95		25.9 µM [falling, partial curve]
CCOC(=O)c1nn(-c2ccc(Cl)cc2)c(C)cc1=O	-19.1	2.31 µM [rising, single point]	6.51 µM [rising, single point]

Structural class, those above with a Cl atom.
Structure (SMILES)	cell number change [%]	AC50 [1]	AC50 [2]
O=C(NCc1ccc(Cl)cc1Cl)C1CC(=O)N(Cc2ccccc2)C1 (stereo not drawn)	-17.1		
CSc1ccc(CNc2ccc(Cl)cc2)cc1	24.4		
CCOC(=O)c1nn(-c2ccc(Cl)cc2)c(C)cc1=O	-19.1	2.31 µM [rising, single point]	6.51 µM [rising, single point]

Next structures follow:

Structure (SMILES)	cell number change [%]	AC50 [1]	AC50 [2]
CCCn1c(SCC(=O)/C(C#N)=C(\C)N)n[nH]c1=O	8.86		25.9 µM [falling, partial curve, poor fit]
CCOc1ccc(NC(=O)CSc2nnc(-c3ccccc3)n2N)cc1	-6.28		0.0259 µM [rising, full curve, poor fit]
Cc1ccc(C)c(OCCSc2nnc(C)c(=O)[nH]2)c1			0.164 µM [falling, full curve, poor fit]
COc1ccc(NC(=S)NNC(=O)c2cccs2)cc1	-3.33		4.11 µM [rising, single point]
CC(C)C[C@H](NC(=O)c1nc[nH]c1C(=O)N[C@@H](CC(C)C)C(=O)OC(C)(C)C)C(=O)OCc1ccccc1		0.00411 µM [rising, full curve, poor fit]	7.31 µM [falling, partial curve]
Cc1ccc(C(C)(C)C)c(OCCCn2ccnc2)c1	-8.48		0.13 µM [rising, full curve, poor fit]
CC(=O)c1c(C)[nH]c(C(=O)NCc2ccccn2)c1C		3.66 µM [rising, single point]	6.51 µM [rising, single point]
CC1CCN(C(=O)CSc2nnc(CNc3ccc(F)cc3)n2Cc2ccco2)CC1	-6.17		3.26 µM [falling, full curve]
CN1CCN(c2nc(-c3ccco3)cc(C(F)(F)F)n2)CC1	19.1		
O=C(NCc1ccccn1)C1CCN(S(=O)(=O)c2cccs2)CC1	5.97		6.51 µM [falling, single point]
COC(=O)c1ccccc1NC(=O)c1cncc(Br)c1	15		0.00651 µM [rising, full curve, poor fit]
CC1CCc2nc(/C(C#N)=C/c3ccncc3)sc2C1 (stereo not drawn)			3.26 µM [rising, single point]
Cc1ccc(S(=O)(=O)NNC(=O)c2ccncc2)cc1[N+](=O)[O-]	-5.8		29.1 µM [rising, single point]
O=C1NC(=O)C2C1C(c1ccccc1)N1C3C(=O)NC(=O)C3C(c3ccccc3)N21 (stereo not drawn)	-21.3	0.164 µM [falling, full curve, poor fit]	
O=C(NCc1ccco1)C(=S)N1CCCC1	3.51	7.31 µM [falling, single point]	
CCS(=O)(=O)N1CCN(S(=O)(=O)c2ccccc2[N+](=O)[O-])CC1	-13.7		29.1 µM [falling, single point]
COc1cccc(NC(=O)CSc2ncnc3c2oc2ccccc23)c1	75.3	2.91 µM [rising, full curve]	23.1 µM [rising, single point]
COc1ccc(O)c(CN2CCC(n3nccc3NC(=O)c3ccccc3Cl)CC2)c1	26.6	0.146 µM [rising, full curve, poor fit]	3.66 µM [falling, partial curve]
COc1ccc(OC)c(NC(=O)CSc2nnc(-c3ccco3)n2-c2ccccc2)c1		0.411 µM [rising, partial curve, poor fit]	
